Measurements reported in PubChem BioAssay AID1224829 (NIAID, 2016)
This is a random part of about 3,800 reagents tested. 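Calls cover raised and lowered translocation; gene median uses one vendor's three siRNAs; qiagen siRNAs acted more weakly than ambion siRNAs.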 A number with no mark means an inactive call. Reagents against one gene are numbered here.

Aim: 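Genes needed for LPS-driven NF-kappaB p65 nuclear entry in mouse macrophages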 (follow-up of hits)
Cell system: mouse RAW264.7 G9 macrophage reporter cells
Reagents: single siRNA against mouse genes, 100 nM
Duration: 2 days of siRNA knock-down, then 40 min of LPS before fixing
Conditions: LPS (Salmonella minnesota R595) at 10 ng/ml
Detection: 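Imaging of GFP-p65 after 40 min of LPS; nuclear over perinuclear ring intensity ratio, scaled to plate median and non-targeting control wells, given as z-score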
Scale: p65 translocation z-score and gene median z-score, per vendor: higher = more nuclear NF-kappaB p65 after LPS
Hit rule: 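Active means the replicate-mean z-score lies beyond plus or minus 2, in either direction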
Calls: active = changed p65 translocation (either direction); inactive = no clear change

Gene | reagent | siRNA vendor or control pool | p65 translocation z-score, replicate mean | p65 translocation z-score, replicate 1 | p65 translocation z-score, replicate 2 | gene median z-score, per vendor
Orc5 | 1 | ambion single siRNA | -2.9 (active) | -2.9 | – | -2.07
Orc5 | 2 | ambion single siRNA | 1.42 | 1.42 | – | -2.07
Orc5 | 3 | ambion single siRNA | -2.07 (active) | -2.61 | -1.53 | -2.07
Orc5 | 4 | qiagen single siRNA | 2.38 (active) | 1.75 | 3.01 | 1.69
Orc5 | 5 | qiagen single siRNA | 1.61 | -0.841 | 4.05 | 1.69
Orc5 | 6 | qiagen single siRNA | 1.21 | 0.78 | 1.64 | 1.69
Camk1d | 1 | ambion single siRNA | -1.61 | -2.65 | -0.557 | -0.399
Camk1d | 2 | ambion single siRNA | 2.21 (active) | -0.241 | 4.66 | -0.399
Camk1d | 3 | ambion single siRNA | -0.694 | 0.468 | -1.86 | -0.399
Shc2 | 1 | qiagen single siRNA | -0.189 | -1.35 | 0.977 | 0.711
Shc2 | 2 | qiagen single siRNA | 1.93 | 0.764 | 3.09 | 0.711
Shc2 | 3 | qiagen single siRNA | -0.352 | -1.36 | 0.657 | 0.711
Bambi | 1 | ambion single siRNA | -2.32 (active) | -2.94 | -1.69 | -2.64
Bambi | 2 | ambion single siRNA | -2.19 (active) | -2.05 | -2.34 | -2.64
Bambi | 3 | ambion single siRNA | -3.91 (active) | -4.53 | -3.3 | -2.64
Bambi | 4 | qiagen single siRNA | 0.182 | -0.236 | 0.601 | -0.236
Bambi | 5 | qiagen single siRNA | -0.558 | -1.27 | 0.159 | -0.236
Bambi | 6 | qiagen single siRNA | -2.67 (active) | -2.67 | – | -0.236

A stretch from the list above, for reference:
Gene | reagent | siRNA vendor or control pool | p65 translocation z-score, replicate mean | p65 translocation z-score, replicate 1 | p65 translocation z-score, replicate 2 | gene median z-score, per vendor
Camk1d | 3 | ambion single siRNA | -0.694 | 0.468 | -1.86 | -0.399
Shc2 | 1 | qiagen single siRNA | -0.189 | -1.35 | 0.977 | 0.711
Shc2 | 2 | qiagen single siRNA | 1.93 | 0.764 | 3.09 | 0.711
Shc2 | 3 | qiagen single siRNA | -0.352 | -1.36 | 0.657 | 0.711
Bambi | 1 | ambion single siRNA | -2.32 (active) | -2.94 | -1.69 | -2.64
Bambi | 2 | ambion single siRNA | -2.19 (active) | -2.05 | -2.34 | -2.64
Bambi | 3 | ambion single siRNA | -3.91 (active) | -4.53 | -3.3 | -2.64

Further records follow.
Gene | reagent | siRNA vendor or control pool | p65 translocation z-score, replicate mean | p65 translocation z-score, replicate 1 | p65 translocation z-score, replicate 2 | gene median z-score, per vendor
Tox | 1 | ambion single siRNA | -3.15 (active) | -3.79 | -2.52 | -2.71
Tox | 2 | ambion single siRNA | -2.71 (active) | -2.7 | -2.72 | -2.71
Tox | 3 | ambion single siRNA | -2.75 (active) | -2.86 | -2.63 | -2.71
Tox | 4 | qiagen single siRNA | 1.68 | 0.979 | 2.39 | 1.19
Tox | 5 | qiagen single siRNA | 2.39 (active) | -0.129 | 4.91 | 1.19
Tox | 6 | qiagen single siRNA | 0.21 | -0.984 | 1.41 | 1.19
Etnppl | 1 | ambion single siRNA | -1.55 | -1.83 | -1.27 | -1.55
Etnppl | 2 | ambion single siRNA | 1.84 | 3.26 | 0.413 | -1.55
Etnppl | 3 | ambion single siRNA | -4.58 (active) | -5.52 | -3.63 | -1.55
Etnppl | 4 | qiagen single siRNA | -0.678 | -0.838 | -0.517 | -0.412
Etnppl | 5 | qiagen single siRNA | -0.0993 | -0.544 | 0.345 | -0.412
Etnppl | 6 | qiagen single siRNA | -0.21 | -0.306 | -0.114 | -0.412
Nfatc3 | 1 | ambion single siRNA | 1.5 | 1.29 | 1.72 | -2.17
Nfatc3 | 2 | ambion single siRNA | -2.36 (active) | -2.55 | -2.17 | -2.17
Nfatc3 | 3 | ambion single siRNA | -5.1 (active) | -5.1 | – | -2.17
Nfatc3 | 4 | qiagen single siRNA | 1.78 | 0.607 | 2.96 | 0.038
Nfatc3 | 5 | qiagen single siRNA | -0.976 | -2.02 | 0.0671 | 0.038
Nfatc3 | 6 | qiagen single siRNA | -2.03 (active) | 0.00893 | -4.07 | 0.038
Cct8l1 | 1 | ambion single siRNA | -1.11 | -0.375 | -1.85 | -2.54
Cct8l1 | 2 | ambion single siRNA | -1.94 | -0.638 | -3.23 | -2.54
Cct8l1 | 3 | ambion single siRNA | -3.56 (active) | -3.87 | -3.26 | -2.54
Cct8l1 | 4 | qiagen single siRNA | 0.17 | 0.349 | -0.0101 | 0.435
Cct8l1 | 5 | qiagen single siRNA | 0.0277 | -0.834 | 0.89 | 0.435
Cct8l1 | 6 | qiagen single siRNA | 0.533 | 0.545 | 0.52 | 0.435
Gm15850 | 1 | ambion single siRNA | 4.55 (active) | 5.72 | 3.37 | 1.24
Gm15850 | 2 | ambion single siRNA | 1.24 | 0.987 | 1.49 | 1.24
Gm15850 | 3 | ambion single siRNA | -4.92 (active) | -5.25 | -4.59 | 1.24
Thap11 | 1 | ambion single siRNA | -5.37 (active) | -6.46 | -4.28 | -4.05
Thap11 | 2 | ambion single siRNA | -4.07 (active) | -4.32 | -3.83 | -4.05
Thap11 | 3 | ambion single siRNA | -1.81 | -1.8 | -1.83 | -4.05
Thap11 | 4 | qiagen single siRNA | 4.03 (active) | 2.55 | 5.52 | 2.55
Thap11 | 5 | qiagen single siRNA | 2.75 (active) | 1.18 | 4.32 | 2.55
Thap11 | 6 | qiagen single siRNA | -0.854 | -0.854 | – | 2.55
